This is one part of the list. The main result of the screen is listed elsewhere. These columns were measured beside it and carry no call.
Assay: wild-type yeast growth inhibition sparing TORC1 bypass cells, mechanism study for yeast TOR pathway GFP screen, BY4741 wild type, TORC1 bypass strain (AID 504456)
Settings: S. cerevisiae BY4741 spot growth rating, 48-72 h, at 30 µM

Growth rating (0-3), 0:
Cc1ccc2nc(Cl)c3nnnn3c2c1
O=c1cc(CSc2ccc(Cl)cc2)nc(-c2ccccn2)[nH]1
CC(C)(C)c1ccc(NC(=O)COC(=O)c2ccc([N+](=O)[O-])s2)cc1

Growth rating (0-3), 3:
Cc1nn2c(-c3ccncc3)nnc2c2ccccc12
Nc1nc(Nc2cccc(F)c2)nc(Nc2cccc(F)c2)c1[N+](=O)[O-]
Cc1ccc(NC(=O)c2ccc(Cl)c(N3C(=O)C=CC3=O)c2)cc1
O=C(OCn1ncc(Br)c(Br)c1=O)c1ccc(F)cc1
CNc1nc(N)c([N+](=O)[O-])c(Nc2cccc(F)c2)n1
CC1=NN(c2ccccc2)C(=O)C1C(c1ccccc1[N+](=O)[O-])C(C#N)C#N (stereo not drawn)
O=C(CCc1ccccc1)NNC(=S)NC(=O)c1ccccc1
Clc1ccc(N=c2ssnc2Cl)cc1
COc1ccc(C(=O)NC(=S)NNC(=O)c2cnccn2)cc1
CCOc1ccc(Nc2nc(NC)nc(N)c2[N+](=O)[O-])cc1
O=C(NC(=S)NNC(=O)c1cnccn1)c1ccc(F)cc1
CC(C)(C)C(=O)C(Cl)C(=O)Nc1ccccc1 (stereo not drawn)
CSC1=NS(=O)(=O)c2c(C)nn(C)c2S1
CN1CCN(C(c2ccc(C(F)(F)F)cc2)c2ccc3cccnc3c2O)CC1 (stereo not drawn)
O=S(=O)(CCN(CCS(=O)(=O)C(F)(F)F)CC1CCCO1)C(F)(F)F (stereo not drawn)
c1ccc(-c2cccc(-c3ccccn3)n2)nc1
COc1ccccc1-c1cc(Nc2cc(C)[nH]n2)nc(NCc2ccccc2)n1
Oc1c(I)cc(I)c2cccnc12
O=C1ON=C(c2ccccc2)/C1=C/c1ccco1
CCOC(=O)c1c(C)oc2c1c(C(c1cccnc1)N1CCOCC1)c(O)c1ccccc12 (stereo not drawn)
CCc1ccc(OCC(=O)NNC(=S)NC(=O)C2CC2)c(Br)c1
COc1ccc(/C=C/C(=O)NC(=S)NNC(=O)c2cnccn2)cc1
COc1cccc(-c2cc(Nc3cc(C)[nH]n3)nc(NCc3ccccc3)n2)c1
Nc1nc(NCCN2CCOCC2)nc(Nc2cccc(F)c2)c1[N+](=O)[O-]
COCCNc1nc(N)c([N+](=O)[O-])c(Nc2cccc(F)c2)n1
Nc1nc(Nc2ccccc2F)nc(Nc2cccc(F)c2)c1[N+](=O)[O-]
CC(=O)c1ccc(N2CCN(C(=O)c3ccc(Br)cc3)CC2)c(F)c1
Nc1nc(NC2CCCCC2)nc(Nc2cccc(F)c2)c1[N+](=O)[O-]
COc1cccc(Nc2nc(N)c([N+](=O)[O-])c(Nc3cccc(F)c3)n2)c1
CC(C)(C)n1nc(-c2ccc(Cl)cc2)c2c(N)ncnc21
CC(Oc1ccc(Cl)cc1)C(=O)NNC(=S)NC(=O)c1ccco1 (stereo not drawn)
O=[N+]([O-])c1ccc(S(=O)(=O)c2cccc(C(F)(F)F)c2)nc1
COc1ccc([N+](=O)[O-])c(S(=O)(=O)c2ccccc2)n1
Clc1cc(Cl)cc(Nc2cc(Oc3cccc(Cl)c3)nc(NCc3ccccc3)n2)c1
C/C(=N\NC(=O)c1ccc(C(C)(C)C)cc1)c1ccccn1

Reprinted from the results shown, 2 compounds:
Growth rating (0-3), 3:
COc1ccc(/C=C/C(=O)NC(=S)NNC(=O)c2cnccn2)cc1
COc1cccc(-c2cc(Nc3cc(C)[nH]n3)nc(NCc3ccccc3)n2)c1
